Measured values reported in patent US20070212677A1, “Identifying off-target effects and hidden phenotypes of drugs in human cells” (Odyssey Thera, Inc., priority 2004, published 2007).
For at least one compound, name, drawing or mass did not settle the structure.

System: Pin1:Jun
Experiment: Pin1:Jun PCA
Type: cell-based, human
Details: PPARγ ligands, 480 minutes; FIG. 18

CCc1ccc(CCOc2ccc(CC3SC(=O)NC3=O)cc2)nc1 (centres unmarked) [pioglitazone]
effect on Pin1/Jun PCA: but not

CN(CCOc1ccc(CC2SC(=O)NC2=O)cc1)c1ccccn1 (centres unmarked) [rosiglitazone]
effect on Pin1/Jun PCA: but not
